The exact form of at least one protein or probe is not confirmed. At least one verdict rests on a figure or table, not on a statement of the authors.
Test system: CK-MB (creatine kinase MB)
Experiment: plate sandwich aptamer assay (ELAA), fluorescence
Details: assay LOD 0.20 nM (not a Kd), 5'-biotin, streptavidin-coated plate, 5% BSA block, aptamer incubations 37 °C 30 min, PBST washes, ALP diluted in PBS pH 7.4, binding buffer salt not stated, label: biotin, single-stranded DNA

Row | Sequence | binding result (capture aptamer, with apt. A2 as detection aptamer, CK-MB 2.5-160 nM) | binding result (detection aptamer on CK-MB captured by apt. A1, CK-MB 2.5-160 nM)
1 | GGGGGGTGGGTGGGGGATCTCGGAGGATGCTTTTAGGGGGTTGGG [apt. A1] | binds | –
2 | CATTGAGAGGGGGTGGCCGTAGTCAGGTGGGTGGGGGTTTGAG [apt. A2] | – | binds

— PMC12293767
